This assay concerns the target MyD88 (mouse, endogenous in bone marrow derived macrophages) (mouse (endogenous in BMDM)) (UniProt P22366). The experiment in a line: co-IP; endogenous proteins in lysates of primary murine BMDM (wildtype C57BL/6; for IRAK4 also Tlr5-deficient) after 100 ng/mL ultrapure LPS for indicated times; lysis in 0.5% TritonX-100, 20 mM HEPES pH 7.4, 150 mM NaCl, 1.5 mM MgCl2, 2 mM EGTA; protein G-Sepharose; immunoblot.

The chains behind the UniProt entries cited, without tags or fusion partners.
UniProt P22366: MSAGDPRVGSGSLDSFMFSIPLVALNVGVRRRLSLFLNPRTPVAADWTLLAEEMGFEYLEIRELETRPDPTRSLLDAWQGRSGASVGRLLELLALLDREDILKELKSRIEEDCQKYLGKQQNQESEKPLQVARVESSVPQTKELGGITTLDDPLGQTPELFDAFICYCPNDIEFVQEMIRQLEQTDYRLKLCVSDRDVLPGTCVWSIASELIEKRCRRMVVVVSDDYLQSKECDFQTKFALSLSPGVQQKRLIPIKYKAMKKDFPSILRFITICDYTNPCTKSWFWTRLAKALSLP

No constants are given. Whether binding was seen depends on the method and setting. In cells and extracts the contact can be indirect. Some results given as binding are weak or reduced against the parent protein; the word gives no strength.

B1: IRAK-4 (mouse, endogenous in bone marrow derived macrophages) (enzyme, UniProt Q8R4K2 1-459)
chain: MNKPLTPSTYIRNLNVGILRKLSDFIDPQEGWKKLAVAIKKPSGDDRYNQFHIRRFEALLQTGKSPTCELLFDWGTTNCTVGDLVDLLVQIELFAPATLLLPDAVPQTVKSLPPREAATVAQTHGPCQEKDRTSVMPMPKLEHSCEPPDSSSPDNRSVESSDTRFHSFSFHELKSITNNFDEQPASAGGNRMGEGGFGVVYKGCVNNTIVAVKKLGAMVEISTEELKQQFDQEIKVMATCQHENLVELLGFSSDSDNLCLVYAYMPNGSLLDRLSCLDGTPPLSWHTRCKVAQGTANGIRFLHENHHIHRDIKSANILLDKDFTAKISDFGLARASARLAQTVMTSRIVGTTAYMAPEALRGEITPKSDIYSFGVVLLELITGLAAVDENREPQLLLDIKEEIEDEEKTIEDYTDEKMSDADPASVEAMYSAASQCLHEKKNRRPDIAKVQQLLQEMSA
B1: the binding entry is given as “binds”.

B2: TLR6 (mouse, endogenous in bone marrow derived macrophages) (receptor, UniProt Q9EPW9 28-795)
chain: FSNELESMVDYSNRNLTHVPKDLPPRTKALSLSQNSISELRMPDISFLSELRVLRLSHNRIRSLDFHVFLFNQDLEYLDVSHNRLQNISCCPMASLRHLDLSFNDFDVLPVCKEFGNLTKLTFLGLSAAKFRQLDLLPVAHLHLSCILLDLVSYHIKGGETESLQIPNTTVLHLVFHPNSLFSVQVNMSVNALGHLQLSNIKLNDENCQRLMTFLSELTRGPTLLNVTLQHIETTWKCSVKLFQFFWPRPVEYLNIYNLTITERIDREEFTYSETALKSLMIEHVKNQVFLFSKEALYSVFAEMNIKMLSISDTPFIHMVCPPSPSSFTFLNFTQNVFTDSVFQGCSTLKRLQTLILQRNGLKNFFKVALMTKNMSSLETLDVSLNSLNSHAYDRTCAWAESILVLNLSSNMLTGSVFRCLPPKVKVLDLHNNRIMSIPKDVTHLQALQELNVASNSLTDLPGCGAFSSLSVLVIDHNSVSHPSEDFFQSCQNIRSLTAGNNPFQCTCELRDFVKNIGWVAREVVEGWPDSYRCDYPESSKGTALRDFHMSPLSCDTVLLTVTIGATMLVLAVTGAFLCLYFDLPWYVRMLCQWTQTRHRARHIPLEELQRNLQFHAFVSYSEHDSAWVKNELLPNLEKDDIRVCLHERNFVPGKSIVENIINFIEKSYKAIFVLSPHFIQSEWCHYELYFAHHNLFHEGSDNLILILLEPILQNNIPSRYHKLRALMAQRTYLEWPTEKGKRGLFWANLRASFIMKLALVNEDDVKT
For B2, the binding result is reported as “no binding”.

The record behind these values is article PMC7032926.
